Values from PubChem BioAssay AID602196 (INSERM, 2012).
Test: 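Knock-downs that protect lung cancer cells from cisplatin or sensitise them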. System: human A549 lung cancer cells. Knock-down reagent: siRNA pair against human genes. Time to read-out: 48 h transfection before cisplatin; time from cisplatin to read-out not stated. Treatment: cisplatin at a dose killing half of control-siRNA cells; exact dose and duration not given. Detection: 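Cisplatin cell death as a shift from the 50% death seen with control siRNA; siRNAs toxic or growth-blocking alone scored 0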. Reading the numbers: two-siRNA summed score (-2 to +2): higher = both siRNAs protect from cisplatin killing; -2 means both sensitise. Call rule: 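Each siRNA scores 0 if harmful alone by LDH or WST-1, otherwise +1 if it reduces and -1 if it increases cisplatin killing; a gene is active when both siRNAs agree (sum +2 or -2)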. Calls: active = both siRNAs shift cisplatin killing the same way; inactive = no consistent shift, or siRNA harmful alone.
Here is an unselected part of about 23,000 reagents. 455 of all reagents (2%) were called active. 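Active includes both protection and sensitisation; some change values fall well beyond the stated -50 to +50 range.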 Not all columns of the deposit are shown. The record does not give: the amount of reagent.

With knock-down of UQCC2 the results were two-siRNA summed score (-2 to +2) = 0; inactive.
With knock-down of LOC440141, the screen gave two-siRNA summed score (-2 to +2) = 0; inactive.
Knock-down of ABCA11P resulted in: two-siRNA summed score (-2 to +2) = 1; inactive.
ZFP14 showed two-siRNA summed score (-2 to +2) = 0; inactive.
Against GNA13 the deposit lists two-siRNA summed score (-2 to +2) = -1; inactive.
For GRHL2 the deposit lists two-siRNA summed score (-2 to +2) = 0; inactive.
Against PCDH7 the deposit lists two-siRNA summed score (-2 to +2) = 1; inactive.
CCDC54 showed two-siRNA summed score (-2 to +2) = 0; inactive.
GUCY2F scored two-siRNA summed score (-2 to +2) = -1; inactive.
After knock-down of HLA-G, the screen gave two-siRNA summed score (-2 to +2) = 1; inactive.
Depletion of LOC283412 came out at: two-siRNA summed score (-2 to +2) = 1; inactive.
Against HOXA3, the values are two-siRNA summed score (-2 to +2) = 1; inactive.
After knock-down of AQP10 the results were two-siRNA summed score (-2 to +2) = 0; inactive.
JAM3 gave two-siRNA summed score (-2 to +2) = 1; inactive.
Depletion of PCDH11X gave: two-siRNA summed score (-2 to +2) = 0; inactive.

5 successive reagents already listed, quoted:
CCDC54 | two-siRNA summed score (-2 to +2): 0; Outcome: inactive
GUCY2F | two-siRNA summed score (-2 to +2): -1; Outcome: inactive
HLA-G | two-siRNA summed score (-2 to +2): 1; Outcome: inactive
LOC283412 | two-siRNA summed score (-2 to +2): 1; Outcome: inactive
HOXA3 | two-siRNA summed score (-2 to +2): 1; Outcome: inactive

Continued.
ZNF157 showed two-siRNA summed score (-2 to +2) = 0; inactive.
For NDUFA5, the entry reads two-siRNA summed score (-2 to +2) = 0; inactive.
Depletion of PIGL resulted in: two-siRNA summed score (-2 to +2) = 0; inactive.
After knock-down of RAB40A, the record shows two-siRNA summed score (-2 to +2) = 2; active.
After knock-down of SLC45A1 the results were two-siRNA summed score (-2 to +2) = 0; inactive.
DPY19L2 showed two-siRNA summed score (-2 to +2) = 0; inactive.
Knock-down of PPP2R3C came out at: two-siRNA summed score (-2 to +2) = 0; inactive.
IL15RA scored two-siRNA summed score (-2 to +2) = 0; inactive.
With knock-down of HMG20A, the record shows two-siRNA summed score (-2 to +2) = 0; inactive.
Knock-down of SFT2D2 came out at: two-siRNA summed score (-2 to +2) = 0; inactive.
Silencing of RPS18 resulted in: two-siRNA summed score (-2 to +2) = 0; inactive.
PLEKHG3 showed two-siRNA summed score (-2 to +2) = 0; inactive.
ZFR2 showed two-siRNA summed score (-2 to +2) = 0; inactive.
ARB2A gave two-siRNA summed score (-2 to +2) = 0; inactive.
For LOC283586 the deposit lists two-siRNA summed score (-2 to +2) = 0; inactive.
Depletion of MMP23B gave: two-siRNA summed score (-2 to +2) = 0; inactive.
